{"sequences": {"note": "Sequences of proteins named here, by UniProt entry; tags and fusion partners are left off. A change or cut given only in a name is not applied to a line headed by its entry.", "UniProt P11142": "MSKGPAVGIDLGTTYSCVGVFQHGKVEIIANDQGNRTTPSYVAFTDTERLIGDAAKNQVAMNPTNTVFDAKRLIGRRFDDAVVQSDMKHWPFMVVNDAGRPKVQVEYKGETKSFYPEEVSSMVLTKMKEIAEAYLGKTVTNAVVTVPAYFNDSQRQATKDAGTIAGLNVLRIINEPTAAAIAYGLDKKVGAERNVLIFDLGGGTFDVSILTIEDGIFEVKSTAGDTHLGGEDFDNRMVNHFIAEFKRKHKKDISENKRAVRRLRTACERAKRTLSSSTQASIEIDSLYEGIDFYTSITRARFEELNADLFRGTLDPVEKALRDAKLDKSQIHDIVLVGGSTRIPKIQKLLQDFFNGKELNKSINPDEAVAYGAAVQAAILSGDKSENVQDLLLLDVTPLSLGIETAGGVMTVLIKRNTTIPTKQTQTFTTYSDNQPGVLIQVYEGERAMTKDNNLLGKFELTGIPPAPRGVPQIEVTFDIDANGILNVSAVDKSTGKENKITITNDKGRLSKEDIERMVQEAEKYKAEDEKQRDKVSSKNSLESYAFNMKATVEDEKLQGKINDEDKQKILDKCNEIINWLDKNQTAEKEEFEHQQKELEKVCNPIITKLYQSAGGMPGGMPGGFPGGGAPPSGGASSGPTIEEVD", "UniProt P04406": "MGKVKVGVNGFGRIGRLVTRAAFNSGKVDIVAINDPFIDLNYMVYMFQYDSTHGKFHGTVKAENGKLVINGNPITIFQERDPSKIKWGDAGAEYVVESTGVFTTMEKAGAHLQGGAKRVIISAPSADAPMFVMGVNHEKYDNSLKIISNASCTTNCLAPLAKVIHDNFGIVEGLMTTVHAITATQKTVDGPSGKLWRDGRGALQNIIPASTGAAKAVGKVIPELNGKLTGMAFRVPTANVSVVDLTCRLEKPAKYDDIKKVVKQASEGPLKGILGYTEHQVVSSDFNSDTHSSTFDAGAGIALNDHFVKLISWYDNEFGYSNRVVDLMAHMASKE", "UniProt P25963": "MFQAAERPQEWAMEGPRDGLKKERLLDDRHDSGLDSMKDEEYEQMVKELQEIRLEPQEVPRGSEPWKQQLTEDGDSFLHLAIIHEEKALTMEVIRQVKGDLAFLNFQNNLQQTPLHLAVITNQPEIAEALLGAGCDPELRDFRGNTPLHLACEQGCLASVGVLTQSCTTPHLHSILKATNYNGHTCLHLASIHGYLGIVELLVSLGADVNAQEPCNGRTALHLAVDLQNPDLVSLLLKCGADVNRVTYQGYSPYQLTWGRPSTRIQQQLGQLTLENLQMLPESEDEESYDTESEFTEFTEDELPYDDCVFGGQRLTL"}, "source": "paper PMC12622308", "key": {"HSC70-HA WT": {"biological_target": "HSC70-HA WT (UniProt P11142)", "assay": "co-IP; HSC70 (WT, K557R or K557Q) with the endogenous CMA substrates IκBα and GAPDH, by Western blot; SIRT2 KD cells, or SIRT2 inhibited with TM or TM-P4-Thal"}, "HSC70-HA K557R": {"biological_target": "HSC70-HA K557R (UniProt P11142)", "assay": "co-IP; HSC70 (WT, K557R or K557Q) with the endogenous CMA substrates IκBα and GAPDH, by Western blot; SIRT2 KD cells, or SIRT2 inhibited with TM or TM-P4-Thal"}, "[1]": {"biological_target": "T1, SIRT2-HA (HA-tagged Sirtuin 2) (UniProt Q8IXJ6)", "T1 sequence": "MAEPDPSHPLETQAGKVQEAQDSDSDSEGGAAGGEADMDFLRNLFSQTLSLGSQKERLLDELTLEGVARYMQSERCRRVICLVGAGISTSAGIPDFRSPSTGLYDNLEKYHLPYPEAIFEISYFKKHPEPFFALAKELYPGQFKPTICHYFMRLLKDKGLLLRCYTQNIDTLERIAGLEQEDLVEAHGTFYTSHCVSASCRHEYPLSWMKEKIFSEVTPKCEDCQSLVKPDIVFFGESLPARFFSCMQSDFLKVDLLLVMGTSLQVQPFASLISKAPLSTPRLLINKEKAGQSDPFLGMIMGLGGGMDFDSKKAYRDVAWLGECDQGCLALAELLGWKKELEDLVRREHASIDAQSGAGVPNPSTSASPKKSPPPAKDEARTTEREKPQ", "assay": "co-IP; SIRT2-HA overexpressed in HEK293T or A549 cells, precipitated with HA-affinity beads, endogenous HSC70 detected by Western blot; nutrient-rich (DMEM) or amino acid starvation (EBSS 4 h)"}}, "note": "These are yes or no findings as the source states them, for the method shown. In cells and extracts the contact can be indirect. Some binding calls cover weakened binding; strength is not graded here. For some assays here: Sequences can lack the tags named with a protein."}
{"substance": "GAPDH, endogenous (from UniProt P04406 1-335)", "values": [{"measurement": "binding", "setting": "HSC70-HA WT", "result": "binds"}, {"measurement": "binding", "setting": "HSC70-HA K557R", "result": "binds"}]}
{"substance": "Heat shock cognate 71kDa protein (HSC70), endogenous (from UniProt P11142 1-646)", "values": [{"measurement": "binding", "setting": "[1]", "result": "binds"}]}
{"substance": "IκBα, endogenous (from UniProt P25963 1-317)", "values": [{"measurement": "binding", "setting": "HSC70-HA WT", "result": "binds"}, {"measurement": "binding", "setting": "HSC70-HA K557R", "result": "binds"}]}
